From patent US20220055989A1, “CONDENSED PYRROLES AS NOVEL BROMODOMAIN INHIBITORS” (ALBERT LUDWING UNIVERSITÄT FREIBURG, priority 2018, published 2022)
The name of at least one read-out is uncertain.

Molecular target: bromodomains
Assay: Bromodomain profiling (BROMOscan), summary over the panel
Format: binding
Details: all bromodomains evaluated in Table 3
Protocol: Bromodomain profiling was carried out on the basis of BROMOscan™. This platform accounted for the indirect determination of the dissociation constants between 19 bromodomains and the compound of formula (13), by binding competition against a reference immobilized ligand.
Compounds that bind the bromodomain prevent its binding to the immobilized ligand thus reducing the amount of protein captured. […] Hits are identified by measuring the amount of bromodomain captured in test versus control samples.
Bromodomain assays for Kd determination: T7 phage strains displaying bromodomains were grown in parallel in 24-well blocks in an E. coli host derived from the BL21 strain. E. coli were grown to log-phase and infected with T7 phage from a frozen stock (multiplicity of infection=0.4) and incubated with shaking at 32° C. until lysis (90-150 minutes). The lysates were centrifuged (5,000×g) and filtered (0.2 μm) to remove cell debris. […] Kds were determined using an 11-point 3-fold compound dilution series with one DMSO control point. […] The bromodomain concentration in the eluates was measured by qPCR.
Bromodomain assays for % Ctrl determination: T7 phage strains displaying bromodomains were grown in parallel in 24-well blocks in an E. coli host derived from the BL21 strain. […] The bromodomain concentration in the eluates was measured by qPCR.

With `Cc1[nH]c(-c2cc(N)ccc2Cl)c2c1C(=O)CCCC2` [Compound 23] the “activity as inhibitor (as evidenced by low values for Kd)” value was “very good activity as inhibitor”.
